# Data from PubChem BioAssay AID1487 (National Center for Advancing Translational Sciences (NCATS), 2009).
# “And” between values parts separate entries of the source, which are not always exact repeats. Identical values can stand only once. Hit rate of the full screen: of about 200,000 compounds, about 25 (0.01%) were called active. Inconclusive means that the source gave no clear call. Such entries were picked first, then a sample of the others. Calls follow the shape of the dose curve; as a rule, active = well fitted inhibition curve with a large enough effect in the signal ratio, with a control signal flat (not every such curve was filed as active); inconclusive = small, poorly fitted or top-dose-only effect, or effect the other way, or a change in a side signal; inactive = flat fitted curve, though single readings scatter; the % refers to the signal ratio. Where the call is inconclusive, the potency comes from a doubtful curve fit.
# Assay: qHTS Assay for Modulators of Lamin A Splicing
# Conditions: HeLa LMNA splicing GFP/RFP minigene ratio, 48 h; ratio change, negative = inhibition: at 46.1 µM (top of the series) unless noted
# From the text: NCGC Assay Overview: Hutchinson-Gilford Progeria Syndrome (HGPS) is a pediatric premature aging disease caused by a spontaneous mutation in the lamin A/C (LMNA) gene. The mutation activates a cryptic splice site in the LMNA pre-mRNA which results in production of a pre-lamin A protein that cannot be processed properly. The mutant protein accumulates in the nucleus and negatively affects numerous cellular functions. Correction of the splicing defect in HGPS patient cells using a targeted oligonucleotide (exo11) leads to reversal of the cellular disease phenotypes. To identify small molecule modulators of aberrant LMNA splicing, a homogenous assay was constructed in HeLa cells that used a GFP containing minigene to report on correction of aberrant splicing in lamin A and a RFP (DsRed2) to report on cell viability, uniformity and nonspecific effects on the assay signal. This assay was adapted to laser-scanning microplate cytometry (Acumen, TTP Labtech) where miniaturization of the assay to a 1,536-well plate format was possible. References: Bowen, W. P.; Wylie, P. G. Application of Laser-Scanning Fluorescence Microplate Cytometry in High Content Screening. Assay Drug Dev Technol 2006;4:209-221. Scaffidi P, Misteli T. Reversal of the cellular phenotype in the premature aging disease Hutchinson-Gilford progeria syndrome. Nat.
# NCGC Assay Protocol Summary: Reagents/Controls: Stable clones expressing DsRed2 and lamin A-EGFP were generated by Cell and Molecular Technologies in S3 HeLa cells. HeLa cells were prepared for the assay when they were 70-90% confluent. The cells were counted and resuspended in Opti-MEM I (no phenol red; Gibco), 2% FBS, 1% penicillin/ streptomycin (Gibco) at concentration of 120 cells/uL concentration. The suspension was passed through a Falcon basket filter with pore size 40um (Beckton Dickson). Control titrations: column […] 1536-well plate contained a sixteen point titration (1:2 dilutions) in duplicate of ancitabine (Sigma: A8598) beginning at 40 uM final concentration. Column 2 contained a sixteen point titration (1:2 dilutions) of cycloheximide beginning at 1.4 mM final concentration. Column 3 contained ancitabine at 40 uM and column 4 contained was the vehicle control (0.5% DMSO final concentration). Assay Steps: 5 uL of HeLa cells were plated in Aurora LoBase black clear bottom (cyclic-olefin polymer) 1536-well plates at a final density of 600 cells/well. Controls and library compounds were added with a 1536-well pin array using the Kalypsys pin-tool. The plates were then incubated for 48 hrs in a cell-culture incubator (37 °C; 5% CO2, 98% humidity). Following incubation the plates were read on the Acumen Explorer using the 488 nm laser. Data was collected on objects between 10 and 100 um in size. Cell objects were defined by a 15 um width x 10 um depth filter. The ratio of the total object intensity in PMT1 (500-530 nm emission; GFP) over PMT3 (575-640 nm emission; RFP) was calculated for analysis. Keywords: NIH Roadmap, MLSCN, MLI, MLSMR, qHTS, NCGC, lamin A, Progeria, RNA splicing.
# % is scaled to controls: 0 for no effect and ±100 for the full control effect; potency is read from the fitted curve at half-maximal effect.
SMILES,Potency,"ratio change, negative = inhibition"
N/C(=N\OC(=O)CC(c1ccccc1)c1ccccc1)c1cccnc1,"inconclusive: 11.2 µM [activator, partial curve, poor fit]",–
CCOc1ccc(C2OC34CCCCC3C(C#N)(C#N)C2(C#N)C(=N)O4)cc1OC (stereo unspecified),–,inconclusive: 30.3%
Cc1ccc2c(C)c(C(=O)Nc3ccc(S(N)(=O)=O)cc3)oc2c1C,–,inconclusive: -13.6% [at 9.22 µM]
Cc1nn(Cc2ccccc2)c(Cl)c1C(=O)OCC#N,–,inactive: 5.35% [at 46 µM]
C=CCn1c(SCC(=O)NCC)nnc1-c1cc2c(s1)CCC(CC)C2 (stereo unspecified),"inconclusive: 25.1 µM [fluorescent, single point]",–
Cc1ccccc1N(CC(=O)NCCSCc1ccco1)S(C)(=O)=O,–,inactive: -2.81%
COc1cccc(NC(=O)CCC(=O)Nc2cccc(OC)c2)c1,–,inconclusive: 2.34%
Cc1cc(C)cc(NC(=S)NCCSc2ccc(Cl)cc2)c1,"inconclusive: 35.5 µM [fluorescent, single point]",–
Cc1ccc(S(=O)(=O)NCC(c2ccc(N(C)C)cc2)N2CCc3ccccc32)cc1 (stereo unspecified),–,inactive: -3.62% [at 46 µM]
CC(Sc1nc2ccccc2[nH]1)C(=O)O (stereo unspecified),–,inactive: 8.22%
O=C(Cc1ccccc1)Nc1nnc2n1CCS2,–,inactive: 5.39% [at 46 µM]
Cc1ccc(N2C(=O)CC(N(O)C3CC(=O)N(c4ccc(C)cc4)C3=O)C2=O)cc1 (stereo unspecified),–,inactive: 0.185%
CCn1cc(C(=O)N2CCN(c3ccc(OC)cc3)CC2)c2cc(OC)c(OC)cc2c1=O,–,inconclusive: 10.2% [at 46 µM]
FC(F)(F)c1nc(-c2cccnc2)ncc1-c1nnnn1-c1ccccc1,–,inactive: -10.3%
COc1cc(OC)c([N+](=O)[O-])cc1/C=N/NC(=O)c1ccncc1,–,inactive: -9.9% [at 46 µM]
COc1cc(C(=O)O)c([N+](=O)[O-])c(OC)c1OC,–,inconclusive: 3.31% [at 46 µM]
Cc1ccc(NC(=O)CCC(=O)OCC(=O)c2ccc(-c3ccccc3)cc2)cc1,–,inconclusive: -19.1%
N#Cc1ccc(NC(=O)N2CCC(c3nc4c(nnn4Cc4cccc(Cl)c4)c(=O)[nH]3)CC2)cc1,–,inconclusive: 6.97%
CC/C(=C/c1sc2ccccc2[n+]1CC)SC,–,inactive: 0.444%
CC(=O)OC1CC[C@]2(C)C(CC[C@@]3(C)C2C(=O)C=C2C4C(C)C(C)CC[C@@]4(C(=O)O)CCC23C)C1(C)C (stereo partly specified),"inconclusive: 4.47 µM [activator, partial curve, poor fit]",–
O=C(NCc1ccc(F)cc1)c1ccc2c(c1)nc1n2CCCCC1,–,inconclusive: 7.78% [at 46 µM]
Cc1c(Cl)cccc1NC(=S)NC(=O)CCN1C(=O)c2ccccc2C1=O,–,inactive: -12%
CCOc1cccc(-c2nnc3sc(-c4ccc(C)cc4)nn23)c1,–,inactive: -4.45%
O=C(O)CNS(=O)(=O)/C=C/c1ccccc1,–,inconclusive: -6.81% [at 46 µM]
N=C1C(c2ccccc2)=C(O)C2CCc3ccccc3N12 (stereo unspecified),–,inactive: -3.02%
FC(F)(F)c1nc2ccccc2nc1N/N=C\c1ccccc1,–,inconclusive: 8.39%

SMILES,Potency,"ratio change, negative = inhibition"
CCOc1ccc(-c2cnc(SCC(N)=O)nc2N)cc1,–,inconclusive: 9.54%
COc1cccc2c1C(=O)c1c(O)c3c(c(O)c1C2=O)C[C@@](O)(C(C)=O)C[C@@H]3O[C@H]1C[C@H](N)[C@H](O)[C@H](C)O1,–,inconclusive: -6.79% and inconclusive: -35.1%
O=C(CSc1ccc2nnc(-c3ccc(Cl)cc3)n2n1)N1CCCc2ccccc21,–,inactive: -20%
COCCn1c(-c2cccc([N+](=O)[O-])c2)nc2c1c(=O)[nH]c(=O)n2Cc1ccccc1,–,inactive: 12.7%
COc1cc(-c2nc3oc4ccccc4c(=O)c3c(=O)n2Cc2ccco2)cc(OC)c1OC,–,inconclusive: -21%
CC(Nc1nc2ncn(Cc3ccccc3)c2c(=O)[nH]1)C(=O)O (stereo unspecified),–,inactive: 5.54%
CCc1ccccc1NC(=O)CN1C(=O)c2cccnc2Sc2ccccc21,–,inactive: -5.52% [at 46 µM]
COc1ccc(-c2nc(N)n[nH]2)cc1OC,–,inactive: 1.37%
COc1ccc(C2CC(=O)c3c(O)cc(O[C@H]4OC(COC5OC(C)C(O)C(O)[C@@H]5O)C(O)C(O)C4O)cc3O2)cc1O (stereo partly specified),–,inactive: -8.09%
O=C(NCc1ccco1)c1nn2c(C(F)(F)F)cc(-c3cccs3)nc2c1Br,–,inconclusive: 19.1%
CCn1c(=N)c(S(=O)(=O)c2ccc(F)cc2)cc2c(=O)n3ccccc3nc21,–,inconclusive: 46%
COc1cc([N+](=O)[O-])ccc1NC(=O)CSc1n[nH]c(C(C)C)n1,–,inconclusive: -20.6% [at 46 µM]
CC(C)c1ccc(OCC(=O)N(Cc2ccccc2)c2ccccn2)cc1,–,inconclusive: -36.1%
CC1(C)CC(=O)C(Sc2ccccc2[N+](=O)[O-])=C(O)C1,–,inconclusive: -6.05%
C=C1C(C(=O)Nc2cccc(OC)c2)C1C(=O)Nc1cccc(OC)c1 (stereo unspecified),–,inconclusive: -30% [at 46 µM]
COc1ccc(/C=C/C(=O)c2cc(Br)ccc2OC(=O)c2ccco2)cc1OC,–,inconclusive: 42.3%
O=C(Nc1ccc(NC(=O)C2CCCN2C(=O)OCc2ccccc2)cc1)c1ccco1 (stereo unspecified),–,inconclusive: 7.63%
O=c1oc2ccccc2cc1-c1nc2c(s1)CCCC2,"inconclusive: 12.6 µM [fluorescent, single point]",–
N#CC1=C(Nc2ccccc2)SC=C(c2ccccc2)N=C1N1CCOCC1,–,inactive: 7.41%
O=C(Cc1csc(Nc2nc(=S)[nH]c3ccccc23)n1)NCCCN1CCN(c2ccccc2F)CC1,–,inconclusive: 22.7% [at 46 µM]
O=C(CN1c2ccccc2S(=O)(=O)c2ccccc21)Nc1cccc(C(F)(F)F)c1,–,inconclusive: -21.5% [at 46 µM]
O=C(CSc1nc2ccccc2c(=O)n1CCCN1CCOCC1)Nc1ccc2c(c1)OCO2,–,inconclusive: -5.59% [at 46 µM]
COc1ccccc1NC(=O)C(=O)NCC(c1cccnc1)N1CCc2ccccc2C1 (stereo unspecified),–,inconclusive: -7.5% [at 46 µM]
Cc1cccc(NC(=S)Nc2ccc(Oc3ccccc3)cc2)n1,"inconclusive: 2.82 µM [falling, full curve, poor fit]",–
Cc1cccc(C)c1NC(=O)CCCSc1nnc(-c2ccco2)o1,–,inconclusive: 12.1%
